Values quoted from earlier work in patent US20200383961A1, “TRIPLET THERAPIES OF HDAC INHIBITORS, PD-L1 AND/OR PD-1 INHIBITORS, AND CTLA-4 INHIBITORS” (HUYA Bioscience International, LLC, priority 2019, published 2020).
At least one compound was matched to its structure with a doubt left.

Test system: RR/PTCL
Conditions: historical benchmark; cited from earlier work

For `C/C=C1\NC(=O)[C@H]2CSSCC/C=C/[C@H](CC(=O)N[C@H](C(C)C)C(=O)N2)OC(=O)[C@H](C(C)C)NC1=O` [Romidepsin], the ORR is listed as 43%.
